Experimental data as given in patent US20150231203A1 (UTI LIMITED PARTNERSHIP, published 2015).
These are yes or no findings as the source states them, for the method shown. Binding seen in cells or lysates may run through a third protein. Some entries that bind do so weakly or less than the wild type. Blank lines part the entries; values can stand above or below the molecule they belong to.

Sequences of proteins named here, by UniProt entry; tags and fusion partners are left off.
UniProt O88427: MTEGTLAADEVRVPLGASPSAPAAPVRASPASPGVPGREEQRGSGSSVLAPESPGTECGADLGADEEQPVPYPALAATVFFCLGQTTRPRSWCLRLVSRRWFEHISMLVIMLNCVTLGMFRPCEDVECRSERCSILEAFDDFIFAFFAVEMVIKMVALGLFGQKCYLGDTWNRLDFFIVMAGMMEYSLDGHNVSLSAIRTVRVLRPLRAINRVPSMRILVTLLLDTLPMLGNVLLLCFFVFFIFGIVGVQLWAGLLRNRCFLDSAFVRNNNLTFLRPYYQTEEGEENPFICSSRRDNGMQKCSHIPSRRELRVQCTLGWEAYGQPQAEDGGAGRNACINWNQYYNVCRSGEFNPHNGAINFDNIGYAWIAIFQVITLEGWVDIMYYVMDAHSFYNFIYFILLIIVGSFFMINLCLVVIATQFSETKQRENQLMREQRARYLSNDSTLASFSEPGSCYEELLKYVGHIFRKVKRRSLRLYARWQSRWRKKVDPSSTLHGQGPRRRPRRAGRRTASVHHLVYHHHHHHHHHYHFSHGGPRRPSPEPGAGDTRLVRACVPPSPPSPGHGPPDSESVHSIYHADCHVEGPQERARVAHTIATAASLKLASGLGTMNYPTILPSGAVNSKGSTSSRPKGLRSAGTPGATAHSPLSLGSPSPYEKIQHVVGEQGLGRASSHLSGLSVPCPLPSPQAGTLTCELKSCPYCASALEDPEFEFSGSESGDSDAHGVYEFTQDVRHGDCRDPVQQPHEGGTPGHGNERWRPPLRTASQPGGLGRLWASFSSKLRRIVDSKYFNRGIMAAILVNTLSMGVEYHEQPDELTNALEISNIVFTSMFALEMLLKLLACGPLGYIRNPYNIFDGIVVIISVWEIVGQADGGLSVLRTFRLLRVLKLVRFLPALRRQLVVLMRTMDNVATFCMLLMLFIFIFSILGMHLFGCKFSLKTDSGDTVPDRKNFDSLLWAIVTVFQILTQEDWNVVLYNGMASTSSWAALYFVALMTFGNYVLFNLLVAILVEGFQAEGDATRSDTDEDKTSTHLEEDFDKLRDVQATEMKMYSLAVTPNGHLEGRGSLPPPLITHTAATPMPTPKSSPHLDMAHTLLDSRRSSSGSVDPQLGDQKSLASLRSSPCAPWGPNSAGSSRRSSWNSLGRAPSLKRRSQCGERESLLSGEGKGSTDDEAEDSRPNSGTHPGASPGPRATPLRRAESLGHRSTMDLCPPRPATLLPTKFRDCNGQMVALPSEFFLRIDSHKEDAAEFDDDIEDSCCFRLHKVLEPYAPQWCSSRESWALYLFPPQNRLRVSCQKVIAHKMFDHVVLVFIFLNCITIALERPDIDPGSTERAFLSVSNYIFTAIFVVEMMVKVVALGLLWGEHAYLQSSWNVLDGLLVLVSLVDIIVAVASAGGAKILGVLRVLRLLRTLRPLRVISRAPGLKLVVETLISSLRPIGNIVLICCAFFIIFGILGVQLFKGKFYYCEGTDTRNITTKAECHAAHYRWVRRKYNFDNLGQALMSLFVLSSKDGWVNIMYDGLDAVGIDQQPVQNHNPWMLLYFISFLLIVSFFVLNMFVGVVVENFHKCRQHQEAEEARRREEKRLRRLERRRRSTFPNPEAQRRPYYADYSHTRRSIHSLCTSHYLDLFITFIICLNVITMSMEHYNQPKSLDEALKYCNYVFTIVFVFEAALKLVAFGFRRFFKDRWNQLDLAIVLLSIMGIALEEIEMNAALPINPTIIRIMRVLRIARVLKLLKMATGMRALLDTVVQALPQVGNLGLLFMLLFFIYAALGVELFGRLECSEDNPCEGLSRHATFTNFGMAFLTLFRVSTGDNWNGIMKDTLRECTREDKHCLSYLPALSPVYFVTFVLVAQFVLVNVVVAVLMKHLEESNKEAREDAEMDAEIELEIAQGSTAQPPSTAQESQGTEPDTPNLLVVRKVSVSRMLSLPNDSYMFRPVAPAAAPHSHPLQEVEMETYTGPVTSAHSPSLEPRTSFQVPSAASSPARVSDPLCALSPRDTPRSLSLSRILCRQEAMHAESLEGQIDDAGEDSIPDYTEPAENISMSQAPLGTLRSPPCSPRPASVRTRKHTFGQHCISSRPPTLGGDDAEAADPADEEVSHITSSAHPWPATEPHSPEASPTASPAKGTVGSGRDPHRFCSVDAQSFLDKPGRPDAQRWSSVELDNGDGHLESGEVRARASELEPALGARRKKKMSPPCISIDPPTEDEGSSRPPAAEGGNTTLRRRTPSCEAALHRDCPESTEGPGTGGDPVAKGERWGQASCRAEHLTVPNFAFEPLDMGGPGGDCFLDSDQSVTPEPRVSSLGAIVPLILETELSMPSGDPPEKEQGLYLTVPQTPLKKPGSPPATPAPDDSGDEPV

Tests used:
[1] = molecular target: USP5 (mouse, endogenous, from brain, DRG or dorsal horn lysate) (mouse) (UniProt P56399); test: co-immunoprecipitation from mouse DRG, western blot for USP5
[2] = molecular target: Cav3.2 channel (mouse, endogenous full-length channel from DRG, brain or dorsal horn) (mouse) (UniProt O88427); test: summary of affinity precipitation and co-immunoprecipitation
[3] = molecular target: Cav3.2 channel (mouse, endogenous full-length channel from DRG, brain or dorsal horn) (mouse) (UniProt O88427); test: co-immunoprecipitation: Cav3.2 immunoprecipitates from mouse DRG lysate probed for WWP1
[4] = molecular target: Cav3.2 channel (mouse, endogenous full-length channel from DRG, brain or dorsal horn) (mouse) (UniProt O88427); test: co-immunoprecipitation from mouse dorsal horn lysate
[5] = molecular target: Cav3.2 channel (mouse, endogenous full-length channel from DRG, brain or dorsal horn) (mouse) (UniProt O88427); test: summary of the co-immunoprecipitation from mouse tissue
[6] = molecular target: Cav3.2 channel (mouse, endogenous full-length channel from DRG, brain or dorsal horn) (mouse) (UniProt O88427); test: co-immunoprecipitation from L4-L6 dorsal horn tissue after chronic constriction injury

binding [1]: binds
Molecule: Cav3.2 channel (mouse, endogenous full-length channel from DRG, brain or dorsal horn) (from UniProt O88427 1-2365)

binding [2]: binds
binding [3]: binds
Molecule: WWP1 (mouse, endogenous, from DRG lysate) (from UniProt Q8BZZ3 1-918) (enzyme)

binding [4]: binds
binding [5]: binds
B1: USP5 (mouse, endogenous, from brain, DRG or dorsal horn lysate) (enzyme, UniProt P56399 2-858, looked up)
chain: AELSEEALLSVLPTIRVPKAGDRVHKDECAFSFDTPESEGGLYICMNTFLGFGKQYVERHFNKTGQRVYLHLRRTRRPKEEDTSAGTGDPPRKKPTRLAIGVEGGFDLTEDKFEFDEDVKIVILPDYLEIARDGLGGLPDIVRDRVTSAVEALLSADSASRKQEVQAWDGEVRQVSKHAFNLKQLDNPARIPPCGWKCSKCDMRENLWLNLTDGSILCGRRYFDGSGGNNHAVEHYRETGYPLAVKLGTITPDGADVYSYDEDDMVLDPSLAEHLSHFGIDMLKMQKTDKTMTELEIDMNQRIGEWELIQESGVPLKPLFGPGYTGIRNLGNSCYLNSVVQVLFSIPDFQRKYVDKLEKIFQNAPTDPTQDFSTQVAKLGHGLLSGEYSKPALESGDGEQVPEQKEVQDGIAPRMFKALIGKGHPEFSTNRQQDAQEFFLHLINMVERNCRSSENPNEVFRFLVEEKIKCLATEKVKYTQRVDYIMQLPVPMDAALNKEELLEYEEKKRQAEEEKVPLPELVRAQVPFSSCLEAYGAPEQVDDFWSTALQAKSVAVKTTRFASFPDYLVIQIKKFTFGLDWVPKKLDVSIEMPEELDISQLRGTGLQPGEEELPDIAPPLVTPDEPKGSLGFYGNEDEDSFCSPHFSSPTSPMLDESVIIQLVEMGFPMDACRKAVYYTGNSGAEAAMNWVMSHMDDPDFANPLILPGSSGPGSTSAAADPPPEDCVTTIVSMGFSRDQALKALRATNNSLERAVDWIFSHIDDLDAEAAMDISEGRSAAESISESVPVGPKVRDGPGKYQLFAFISHMGTSTMCGHYVCHIKKEGRWVIYNDQKVCASEKPPKDLGYIYFYQRVVS
binding [6]: binds
